Measurements from the supplement of paper PMC12067093, “Discovery and optimisation of a covalent ligand for TRIM25 and its application to targeted protein ubiquitination” (Chemical Science, 2025).
Some of the results follow.

By UniProt entry, the sequences of proteins in these tests, tags left out. Where a name states a change or a piece, a line headed by the entry shows the natural chain unless it says otherwise.
UniProt Q9Y6R4: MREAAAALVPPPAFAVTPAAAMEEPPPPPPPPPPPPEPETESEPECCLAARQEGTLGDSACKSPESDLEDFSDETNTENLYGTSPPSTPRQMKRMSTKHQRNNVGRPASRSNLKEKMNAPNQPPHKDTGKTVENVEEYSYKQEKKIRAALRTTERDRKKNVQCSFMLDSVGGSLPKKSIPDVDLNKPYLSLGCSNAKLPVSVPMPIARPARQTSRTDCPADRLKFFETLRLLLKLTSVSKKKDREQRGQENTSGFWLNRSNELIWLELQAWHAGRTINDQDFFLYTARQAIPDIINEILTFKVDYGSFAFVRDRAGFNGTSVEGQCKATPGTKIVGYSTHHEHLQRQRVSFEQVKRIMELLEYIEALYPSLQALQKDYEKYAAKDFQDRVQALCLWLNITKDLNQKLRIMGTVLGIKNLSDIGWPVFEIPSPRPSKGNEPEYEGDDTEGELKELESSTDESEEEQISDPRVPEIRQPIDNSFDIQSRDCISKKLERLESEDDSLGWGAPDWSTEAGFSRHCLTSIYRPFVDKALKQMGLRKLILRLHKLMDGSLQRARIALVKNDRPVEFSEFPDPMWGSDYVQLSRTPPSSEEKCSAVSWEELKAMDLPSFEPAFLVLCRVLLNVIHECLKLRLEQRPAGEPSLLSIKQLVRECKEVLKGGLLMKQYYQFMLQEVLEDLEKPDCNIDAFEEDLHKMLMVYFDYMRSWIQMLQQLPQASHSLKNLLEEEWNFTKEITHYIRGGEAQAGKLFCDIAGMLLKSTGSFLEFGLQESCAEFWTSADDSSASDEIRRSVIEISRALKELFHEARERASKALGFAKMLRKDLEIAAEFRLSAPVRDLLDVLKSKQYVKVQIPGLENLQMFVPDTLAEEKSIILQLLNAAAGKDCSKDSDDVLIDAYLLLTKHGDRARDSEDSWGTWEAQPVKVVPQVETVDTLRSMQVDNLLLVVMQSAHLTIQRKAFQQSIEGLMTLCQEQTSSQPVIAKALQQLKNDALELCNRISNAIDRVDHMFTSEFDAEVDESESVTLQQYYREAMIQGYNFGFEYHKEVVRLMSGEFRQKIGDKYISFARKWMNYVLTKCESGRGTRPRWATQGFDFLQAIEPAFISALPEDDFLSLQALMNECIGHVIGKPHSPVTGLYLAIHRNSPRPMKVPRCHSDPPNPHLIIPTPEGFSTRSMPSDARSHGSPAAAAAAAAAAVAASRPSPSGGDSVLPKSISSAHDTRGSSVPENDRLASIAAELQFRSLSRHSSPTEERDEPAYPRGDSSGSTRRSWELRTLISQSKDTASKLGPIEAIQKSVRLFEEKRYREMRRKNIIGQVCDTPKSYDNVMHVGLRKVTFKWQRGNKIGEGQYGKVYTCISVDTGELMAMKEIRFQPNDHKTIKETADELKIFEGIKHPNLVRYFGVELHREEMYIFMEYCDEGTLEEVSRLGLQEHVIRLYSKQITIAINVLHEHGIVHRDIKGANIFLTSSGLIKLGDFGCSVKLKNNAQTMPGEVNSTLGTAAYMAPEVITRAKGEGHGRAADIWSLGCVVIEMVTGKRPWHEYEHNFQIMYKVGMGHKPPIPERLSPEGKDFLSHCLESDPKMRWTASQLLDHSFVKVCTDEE
UniProt P46734: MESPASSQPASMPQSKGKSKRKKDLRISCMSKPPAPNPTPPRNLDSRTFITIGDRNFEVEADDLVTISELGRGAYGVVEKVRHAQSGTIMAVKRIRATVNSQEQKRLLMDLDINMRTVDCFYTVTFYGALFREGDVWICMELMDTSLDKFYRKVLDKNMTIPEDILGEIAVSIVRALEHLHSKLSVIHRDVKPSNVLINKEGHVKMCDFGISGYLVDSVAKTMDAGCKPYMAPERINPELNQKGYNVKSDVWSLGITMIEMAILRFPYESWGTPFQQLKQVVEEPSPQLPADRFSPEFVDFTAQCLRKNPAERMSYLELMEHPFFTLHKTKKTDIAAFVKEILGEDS
UniProt Q9Y250: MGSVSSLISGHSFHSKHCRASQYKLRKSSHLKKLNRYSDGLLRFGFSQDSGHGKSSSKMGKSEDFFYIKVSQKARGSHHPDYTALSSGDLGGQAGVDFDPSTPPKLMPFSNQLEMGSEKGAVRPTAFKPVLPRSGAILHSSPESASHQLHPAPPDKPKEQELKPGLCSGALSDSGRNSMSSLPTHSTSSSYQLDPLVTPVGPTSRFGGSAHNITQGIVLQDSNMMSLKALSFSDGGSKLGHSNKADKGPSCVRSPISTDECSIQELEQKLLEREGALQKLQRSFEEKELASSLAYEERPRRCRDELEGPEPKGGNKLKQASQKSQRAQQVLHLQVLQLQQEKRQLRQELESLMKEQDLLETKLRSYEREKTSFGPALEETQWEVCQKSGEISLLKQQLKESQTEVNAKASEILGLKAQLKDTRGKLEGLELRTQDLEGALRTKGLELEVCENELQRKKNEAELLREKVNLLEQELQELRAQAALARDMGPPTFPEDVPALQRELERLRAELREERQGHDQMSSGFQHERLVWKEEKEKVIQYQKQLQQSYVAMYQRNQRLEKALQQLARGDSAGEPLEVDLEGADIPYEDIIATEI
UniProt Q9NZL9, whole entry, looked up: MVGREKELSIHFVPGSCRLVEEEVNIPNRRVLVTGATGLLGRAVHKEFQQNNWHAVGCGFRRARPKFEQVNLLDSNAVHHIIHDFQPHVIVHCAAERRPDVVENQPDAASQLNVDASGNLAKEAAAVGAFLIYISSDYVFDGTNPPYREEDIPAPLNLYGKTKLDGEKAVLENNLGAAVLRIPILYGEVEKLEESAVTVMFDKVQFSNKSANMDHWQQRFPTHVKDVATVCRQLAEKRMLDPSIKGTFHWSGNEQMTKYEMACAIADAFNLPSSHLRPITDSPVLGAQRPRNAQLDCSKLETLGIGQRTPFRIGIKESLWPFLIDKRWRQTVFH
UniProt Q96GX5: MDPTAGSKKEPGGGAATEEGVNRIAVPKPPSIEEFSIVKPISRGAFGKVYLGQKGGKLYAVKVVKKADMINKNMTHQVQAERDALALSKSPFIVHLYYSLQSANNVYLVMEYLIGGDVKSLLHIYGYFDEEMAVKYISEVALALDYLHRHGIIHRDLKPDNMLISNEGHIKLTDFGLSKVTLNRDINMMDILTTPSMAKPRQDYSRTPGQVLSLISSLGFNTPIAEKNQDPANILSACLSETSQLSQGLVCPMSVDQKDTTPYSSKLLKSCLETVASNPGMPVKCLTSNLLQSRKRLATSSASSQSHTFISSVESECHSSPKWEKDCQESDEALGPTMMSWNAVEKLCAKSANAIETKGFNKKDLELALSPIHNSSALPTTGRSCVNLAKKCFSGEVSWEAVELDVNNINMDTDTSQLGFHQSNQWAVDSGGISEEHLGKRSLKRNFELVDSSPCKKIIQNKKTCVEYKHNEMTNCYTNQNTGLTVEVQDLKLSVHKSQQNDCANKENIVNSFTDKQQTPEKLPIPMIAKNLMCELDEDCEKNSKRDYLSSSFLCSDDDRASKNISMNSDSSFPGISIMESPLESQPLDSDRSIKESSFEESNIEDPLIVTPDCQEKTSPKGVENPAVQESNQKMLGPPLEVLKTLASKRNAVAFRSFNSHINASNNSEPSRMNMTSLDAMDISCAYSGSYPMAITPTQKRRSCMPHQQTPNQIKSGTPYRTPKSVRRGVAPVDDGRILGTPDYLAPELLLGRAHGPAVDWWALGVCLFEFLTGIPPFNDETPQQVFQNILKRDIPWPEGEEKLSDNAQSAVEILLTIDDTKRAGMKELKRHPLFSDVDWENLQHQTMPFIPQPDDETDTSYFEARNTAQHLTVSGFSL
UniProt P07948: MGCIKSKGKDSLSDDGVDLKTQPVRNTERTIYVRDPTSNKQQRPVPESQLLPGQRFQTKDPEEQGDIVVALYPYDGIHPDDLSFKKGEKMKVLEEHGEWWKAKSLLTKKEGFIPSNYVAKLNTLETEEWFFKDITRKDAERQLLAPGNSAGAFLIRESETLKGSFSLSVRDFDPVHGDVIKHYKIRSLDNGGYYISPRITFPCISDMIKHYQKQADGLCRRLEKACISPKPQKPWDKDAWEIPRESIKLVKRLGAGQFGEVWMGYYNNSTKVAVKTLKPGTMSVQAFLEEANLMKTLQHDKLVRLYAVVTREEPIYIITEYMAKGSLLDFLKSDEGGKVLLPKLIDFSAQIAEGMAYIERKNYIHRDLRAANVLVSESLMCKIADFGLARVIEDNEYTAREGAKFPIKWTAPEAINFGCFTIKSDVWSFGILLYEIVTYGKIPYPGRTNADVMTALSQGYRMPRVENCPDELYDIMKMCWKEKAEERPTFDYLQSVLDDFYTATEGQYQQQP
UniProt P56192: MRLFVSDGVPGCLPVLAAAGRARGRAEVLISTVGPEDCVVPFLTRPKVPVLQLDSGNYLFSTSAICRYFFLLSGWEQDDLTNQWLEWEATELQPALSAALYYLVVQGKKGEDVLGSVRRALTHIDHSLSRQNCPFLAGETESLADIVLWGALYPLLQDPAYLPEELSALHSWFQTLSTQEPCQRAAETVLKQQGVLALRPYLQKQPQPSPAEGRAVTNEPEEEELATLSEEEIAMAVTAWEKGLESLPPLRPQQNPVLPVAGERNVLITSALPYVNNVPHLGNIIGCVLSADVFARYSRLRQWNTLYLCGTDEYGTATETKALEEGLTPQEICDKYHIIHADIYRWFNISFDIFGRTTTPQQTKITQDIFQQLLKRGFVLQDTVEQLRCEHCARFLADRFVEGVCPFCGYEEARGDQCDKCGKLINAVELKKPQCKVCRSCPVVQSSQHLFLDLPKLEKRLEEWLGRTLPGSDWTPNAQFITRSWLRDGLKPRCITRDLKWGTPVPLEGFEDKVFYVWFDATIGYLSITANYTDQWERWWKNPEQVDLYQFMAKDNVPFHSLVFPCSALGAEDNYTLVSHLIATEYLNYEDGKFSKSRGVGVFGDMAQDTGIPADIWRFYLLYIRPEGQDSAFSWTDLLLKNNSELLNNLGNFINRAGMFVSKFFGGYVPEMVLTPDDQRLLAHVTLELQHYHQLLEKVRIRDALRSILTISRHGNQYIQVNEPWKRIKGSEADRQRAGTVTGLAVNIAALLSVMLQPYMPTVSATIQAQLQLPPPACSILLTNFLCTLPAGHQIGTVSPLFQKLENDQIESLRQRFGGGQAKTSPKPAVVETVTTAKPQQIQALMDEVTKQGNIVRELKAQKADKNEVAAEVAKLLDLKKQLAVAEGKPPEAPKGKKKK
UniProt O00462: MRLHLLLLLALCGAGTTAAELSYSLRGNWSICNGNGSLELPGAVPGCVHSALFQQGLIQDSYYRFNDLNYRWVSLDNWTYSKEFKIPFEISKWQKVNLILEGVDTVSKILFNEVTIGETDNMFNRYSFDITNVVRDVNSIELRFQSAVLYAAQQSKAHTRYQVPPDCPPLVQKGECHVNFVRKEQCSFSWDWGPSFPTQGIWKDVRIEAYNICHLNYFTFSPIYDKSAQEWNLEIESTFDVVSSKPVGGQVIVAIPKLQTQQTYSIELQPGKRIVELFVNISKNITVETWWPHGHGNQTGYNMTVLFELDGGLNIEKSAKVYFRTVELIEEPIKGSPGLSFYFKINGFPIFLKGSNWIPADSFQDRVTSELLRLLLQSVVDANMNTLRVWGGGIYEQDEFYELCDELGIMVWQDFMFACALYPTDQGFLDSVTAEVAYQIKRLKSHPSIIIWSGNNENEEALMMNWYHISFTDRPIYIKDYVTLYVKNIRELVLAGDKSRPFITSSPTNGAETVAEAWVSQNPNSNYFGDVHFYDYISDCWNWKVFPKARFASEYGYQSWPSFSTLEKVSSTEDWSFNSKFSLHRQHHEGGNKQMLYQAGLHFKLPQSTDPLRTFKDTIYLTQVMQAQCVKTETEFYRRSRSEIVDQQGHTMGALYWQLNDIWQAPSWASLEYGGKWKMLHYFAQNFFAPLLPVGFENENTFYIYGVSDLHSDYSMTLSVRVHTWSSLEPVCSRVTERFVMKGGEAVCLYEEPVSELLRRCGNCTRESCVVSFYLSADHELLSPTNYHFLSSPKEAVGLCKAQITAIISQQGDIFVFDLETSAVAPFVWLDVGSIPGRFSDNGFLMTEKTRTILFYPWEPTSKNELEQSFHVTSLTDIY

Compound: Cc1cc(ccc1-c1ccccc1)C(=O)N1CCCN(CC1)C(=O)CCl [compound 10]
Experiment: probe-labelled cysteine peptide fold change vs DMSO (competition) (log2 fold change); higher = less target engagement (more negative = stronger competition)
Settings: THP-1, incubation time: 4 h
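Also: competitive profiling in live THP-1 cells: cysteine peptides tagged with an iodoacetamide desthiobiotin (IA-DTB) probe, intensity after compound treatment relative to DMSO-treated cells.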

Target	probe-labelled cysteine peptide fold change (10 µM)	probe-labelled cysteine peptide fold change (50 µM)
MAP3K4_Q9Y6R4-2_1157_CHSDPPNPHLIIPTPEGFR (UniProt Q9Y6R4)	-0.298	-0.553
MAP3K4_Q9Y6R4_1322_NIIGQVCDTPK (UniProt Q9Y6R4)	-0.0143	0.218
MAN2C1_Q9NTJ4_584_LLLLNQFHDVVTGSCIQMVAEEAMCHYEDIR (UniProt Q9NTJ4)	0.499	0.485
MBIP_Q9NS73_243_DCGNQAVEER (UniProt Q9NS73)	-0.149	0.0308
MAP2K3_P46734_305_FSPEFVDFTAQCLR (UniProt P46734)	0.0829	0.0603
LZTS1_Q9Y250_450_GLELEVCENELQR (UniProt Q9Y250)	-0.0879	0.191
LYAR_Q9NX58_33_NCECLSCIDCGK (UniProt Q9NX58)	0.0926	0.167
MAT2B_Q9NZL9_231_DVATVCR (UniProt Q9NZL9)	-0.17	-0.0553
MAPK9_P45984_177_TACTNFMMTPYVVTR (UniProt P45984)	-0.494	-1.64
MASTL_Q96GX5_614_ESSFEESNIEDPLIVTPDCQEK (UniProt Q96GX5)	0.0778	-0.136
LYN_P07948_381_AANVLVSESLMCK (UniProt P07948)	0.104	0.0654
LYN_P07948_226_ACISPK (UniProt P07948)	0.00857	0.101
MAK16_Q9BXY0_17_QFCSFK (UniProt Q9BXY0)	-0.115	-0.166
MARS_P56192_405_FVEGVCPFCGYEEAR (UniProt P56192)	-0.0372	-0.26
MANBA_O00462_769_ESCVVSFYLSADHELLSPTNYHFLSSPK (UniProt O00462)	0.153	0.128
